Some entries share one result that the patent states for a list of compounds.
Biological target: T1, CRP (Homo sapiens, UniProt P02741)
T1 sequence (P02741 19-224): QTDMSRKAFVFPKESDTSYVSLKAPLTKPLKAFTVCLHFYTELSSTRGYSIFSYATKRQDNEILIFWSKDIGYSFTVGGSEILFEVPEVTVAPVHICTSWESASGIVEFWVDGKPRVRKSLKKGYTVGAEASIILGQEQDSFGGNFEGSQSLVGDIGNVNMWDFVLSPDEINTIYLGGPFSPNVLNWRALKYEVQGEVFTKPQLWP
Assay: In vivo clearance of preformed CRP/ligand complexes in mice
Design: from tissue
Conditions: complexes formed in vitro, injected intravenously
Protocol: (i) CRP at 1 mg/ml in azide-free TC buffer (containing, in some experiments, ˜10^6 cpm/ml of ^125I-CRP) was incubated with a 5-fold molar excess of ligand. A control (ligand-free) sample was also prepared. Cross linking of CRP was confirmed by SEC in TC buffer of a small sample of complex.
(ii) Two groups of eight wild-type C57BL/6 mice (male; 23-27 weeks old) were used.
The complex or control (200 μl, 200 μg CRP) was injected into the tail vein of each mouse. A single timed collection of blood was taken from the tail vain of each mouse; a second terminal sample was also collected. This yielded 4 samples each at 30, 60, 120 and 180 min for control and treated groups.
(iii) Blood samples were weighed and CRP measured in the Roche assay and, in some cases by electroimmunoassay (4, 13). ^125I-CRP was measured by gamma counting (Perkin Elmer Wizard; protocol #1).
Complexes were prepared in vitro using ^125I-labelled CRP and an excess of ligand, and the mixture was then injected intravenously into mice. Clearance of CRP was monitored by counting of the ^125I-CRP tracer and stable CRP-ligand complexes were detected by lack of CRP detection in the Roche assay of the plasma samples. The formation of CRP/ligand complexes was confirmed by size exclusion chromatography before use in each in vivo experiment.

O=C(CC(c1ccccc1)C(CC(=O)NC(C(=O)O)[C@H]1CN2CCC1CC2)c1ccccc1)NC(C(=O)O)[C@H]1CN2CCC1CC2 (single isomer, unassigned) [P2B-D peak1]
Time Roche CRP value suppressed (persistence of preformed complex in circulation): at least 60 min

O=C(NC(C(=O)O)[C@H]1CN2CCC1CC2)c1ccc(C(=O)NC(C(=O)O)[C@H]2CN3CCC2CC3)cc1 (stereo partly drawn) [Compound P2B-B, (R,2R,2′R)-2,2′-(terephthaloylbis(azanediyl))bis(2-((R)-quinuclidin-3-yl)acetic acid)]
Time Roche CRP value suppressed (persistence of preformed complex in circulation): at least 60 min
